Literature values as cited in publication PMC10049495, “Antitumor Activity of PEGylated and TEGylated Phenothiazine Derivatives: Structure–Activity Relationship” (International Journal of Molecular Sciences, 2023).
Like-named read-outs stand apart in the source and are kept apart here.

What was measured:
U87-MG = settings: cited from earlier work
HepG2 = HepG2 (merged cell assumed); cited from earlier work

| Compound | IC50 (U87-MG; U87-MG) | IC50 (HepG2) | IC50 (U87-MG; cell line not clear from layout (U87-MG assumed)) |
| --- | --- | --- | --- |
| CSc1ccc2c(c1)N(CCC1CCCCN1C)c1ccccc1S2 (stereo not drawn) [Thioridazine] | 12.4 µM | 45.5 µM | – |
| CN1CCN(CCCN2c3ccccc3Sc3ccc(Cl)cc32)CC1 [Prochlorperazine] | – | – | 0.97 µM |
